Among the data in PMC6546705 are binding values, retold here.

These are yes or no findings as the source states them, for the method shown. Binding seen in cells or lysates may run through a third protein. Some results given as binding are weak or reduced against the parent protein; the word gives no strength.

The assay addresses MnSOD^K68R (deacetylation mimic, human, lentiviral expression) (human) (UniProt P04179). Nature of the assay: cross-linking; cell lysates treated with 0.1% glutaraldehyde for 10 min at room temperature, SDS-PAGE (semi-native gel), immunoblot with anti-MnSOD; MCF7, T47D and MnSOD-/- MEFs; also cells with shSIRT3 or selected for hydroxy-Tam resistance.

B1: MnSOD^K68R (deacetylation mimic, human, lentiviral expression) (enzyme, UniProt P04179 25-222)
chain: KHSLPDLPYDYGALEPHINAQIMQLHHSKHHAAYVNNLNVTEERYQEALAKGDVTAQIALQPALKFNGGGHINHSIFWTNLSPNGGGEPKGELLEAIKRDFGSFDKFKEKLTAASVGVQGSGWGWLGFNKERGHLQIAACPNQDPLQGTTGLIPLLGIDVWEHAYYLQYKNVRPDYLKAIWNVINWENVTERYMACKK
On to B1, for which the binding result is listed as “binds”.
